± gives the standard deviation of the averaged measurements. This is a selection; strong and weak results do not stand in their true shares. Most entries show no effect beyond the scatter of the controls.
Compound: Nc1ncnc2c1ncn2[C@@H]1O[C@H](COP(=O)(O)OP(=O)(O)NP(=O)(O)O)[C@@H](O)[C@H]1O [adenylyl imidodiphosphate]
Experiment: NP40-soluble protein abundance relative to vehicle (solubility fold change) (ratio); higher = more soluble protein in presence of AMP-PNP
Outline: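 Jurkat crude lysate (Dounce-homogenised) was treated with eight concentrations from 0.1 to 10 mM for 10 min at room temperature, then 3 min at 37 °C. It was solubilised with 0.8% NP40 and benzonase (60 min, 4 °C) and ultracentrifuged, and the supernatant was TMT-labelled for LC-MS/MS. Intensities were vsn-normalised, and the value is the fold change against the NP40-processed vehicle per replicate, from three independent experiments.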

Amino acid sequences for entries named in this document (tags omitted). A change or cut given only in a name is not applied to a line headed by its entry.
UniProt O43795: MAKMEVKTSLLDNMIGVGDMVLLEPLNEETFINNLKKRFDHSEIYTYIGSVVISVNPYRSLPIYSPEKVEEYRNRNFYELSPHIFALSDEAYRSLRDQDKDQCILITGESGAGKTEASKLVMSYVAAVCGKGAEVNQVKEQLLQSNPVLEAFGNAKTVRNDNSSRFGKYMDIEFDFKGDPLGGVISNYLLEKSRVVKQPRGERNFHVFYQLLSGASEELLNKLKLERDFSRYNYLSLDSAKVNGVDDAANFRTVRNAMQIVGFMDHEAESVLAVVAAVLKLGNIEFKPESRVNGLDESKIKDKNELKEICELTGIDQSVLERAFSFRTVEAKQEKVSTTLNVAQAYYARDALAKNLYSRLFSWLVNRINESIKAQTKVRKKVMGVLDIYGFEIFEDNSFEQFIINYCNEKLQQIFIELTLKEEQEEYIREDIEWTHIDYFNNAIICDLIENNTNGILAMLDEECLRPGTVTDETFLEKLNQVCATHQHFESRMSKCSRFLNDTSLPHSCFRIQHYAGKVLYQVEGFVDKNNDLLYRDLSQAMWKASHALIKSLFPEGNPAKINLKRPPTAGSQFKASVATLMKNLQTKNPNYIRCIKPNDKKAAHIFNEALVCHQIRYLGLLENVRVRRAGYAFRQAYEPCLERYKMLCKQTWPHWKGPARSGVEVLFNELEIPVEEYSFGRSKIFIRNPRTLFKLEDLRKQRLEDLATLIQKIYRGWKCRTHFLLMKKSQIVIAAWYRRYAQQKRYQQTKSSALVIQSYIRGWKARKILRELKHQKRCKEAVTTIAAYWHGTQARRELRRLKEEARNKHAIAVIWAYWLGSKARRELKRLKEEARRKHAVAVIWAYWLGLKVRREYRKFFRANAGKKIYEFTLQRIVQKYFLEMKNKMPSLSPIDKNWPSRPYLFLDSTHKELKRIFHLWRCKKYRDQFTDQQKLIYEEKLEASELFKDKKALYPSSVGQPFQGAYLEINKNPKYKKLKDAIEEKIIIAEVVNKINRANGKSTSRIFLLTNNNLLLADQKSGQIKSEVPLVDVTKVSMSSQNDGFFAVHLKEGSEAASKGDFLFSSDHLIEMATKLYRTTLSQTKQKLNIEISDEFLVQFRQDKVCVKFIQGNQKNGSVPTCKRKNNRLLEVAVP
UniProt P19404, whole entry: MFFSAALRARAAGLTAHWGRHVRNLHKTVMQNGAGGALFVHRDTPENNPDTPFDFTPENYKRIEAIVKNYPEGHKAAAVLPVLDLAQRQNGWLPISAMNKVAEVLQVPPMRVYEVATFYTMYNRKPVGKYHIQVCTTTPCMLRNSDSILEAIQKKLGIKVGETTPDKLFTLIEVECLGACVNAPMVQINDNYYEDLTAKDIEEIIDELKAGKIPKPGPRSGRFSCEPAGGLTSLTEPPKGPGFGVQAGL
UniProt Q12912: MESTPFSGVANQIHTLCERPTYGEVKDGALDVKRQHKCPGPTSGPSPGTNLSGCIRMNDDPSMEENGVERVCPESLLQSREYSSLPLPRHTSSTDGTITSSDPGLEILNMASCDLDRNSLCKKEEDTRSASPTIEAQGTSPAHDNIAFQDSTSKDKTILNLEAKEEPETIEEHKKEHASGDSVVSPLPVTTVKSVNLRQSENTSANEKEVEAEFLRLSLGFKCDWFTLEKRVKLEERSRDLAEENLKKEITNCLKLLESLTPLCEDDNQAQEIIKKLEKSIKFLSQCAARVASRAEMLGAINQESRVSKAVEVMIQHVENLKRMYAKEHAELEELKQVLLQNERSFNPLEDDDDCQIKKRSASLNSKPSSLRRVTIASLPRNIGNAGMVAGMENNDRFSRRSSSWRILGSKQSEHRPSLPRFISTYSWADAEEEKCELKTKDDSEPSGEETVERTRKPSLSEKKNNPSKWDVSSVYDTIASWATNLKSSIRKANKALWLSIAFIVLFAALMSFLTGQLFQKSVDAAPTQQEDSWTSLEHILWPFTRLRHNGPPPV
UniProt Q9NZJ0: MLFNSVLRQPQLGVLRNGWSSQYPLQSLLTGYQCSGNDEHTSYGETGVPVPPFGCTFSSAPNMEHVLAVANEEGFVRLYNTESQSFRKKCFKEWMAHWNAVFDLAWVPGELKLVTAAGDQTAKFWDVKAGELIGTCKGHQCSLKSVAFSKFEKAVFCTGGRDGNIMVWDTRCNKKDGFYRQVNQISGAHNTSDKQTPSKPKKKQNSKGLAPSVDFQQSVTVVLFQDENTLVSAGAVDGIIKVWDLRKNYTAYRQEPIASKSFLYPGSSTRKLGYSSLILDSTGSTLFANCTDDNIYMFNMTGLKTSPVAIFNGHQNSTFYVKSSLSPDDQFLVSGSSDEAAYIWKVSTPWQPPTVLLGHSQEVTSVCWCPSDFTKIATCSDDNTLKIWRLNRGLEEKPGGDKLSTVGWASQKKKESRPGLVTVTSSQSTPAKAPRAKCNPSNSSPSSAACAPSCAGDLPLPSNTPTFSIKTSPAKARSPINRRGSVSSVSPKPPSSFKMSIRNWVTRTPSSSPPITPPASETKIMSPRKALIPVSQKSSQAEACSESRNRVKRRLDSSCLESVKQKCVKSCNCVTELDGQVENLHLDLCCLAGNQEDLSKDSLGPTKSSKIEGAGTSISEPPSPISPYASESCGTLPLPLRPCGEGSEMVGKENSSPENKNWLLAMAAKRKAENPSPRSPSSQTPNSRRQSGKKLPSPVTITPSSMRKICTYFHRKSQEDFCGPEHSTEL
UniProt Q6UW02: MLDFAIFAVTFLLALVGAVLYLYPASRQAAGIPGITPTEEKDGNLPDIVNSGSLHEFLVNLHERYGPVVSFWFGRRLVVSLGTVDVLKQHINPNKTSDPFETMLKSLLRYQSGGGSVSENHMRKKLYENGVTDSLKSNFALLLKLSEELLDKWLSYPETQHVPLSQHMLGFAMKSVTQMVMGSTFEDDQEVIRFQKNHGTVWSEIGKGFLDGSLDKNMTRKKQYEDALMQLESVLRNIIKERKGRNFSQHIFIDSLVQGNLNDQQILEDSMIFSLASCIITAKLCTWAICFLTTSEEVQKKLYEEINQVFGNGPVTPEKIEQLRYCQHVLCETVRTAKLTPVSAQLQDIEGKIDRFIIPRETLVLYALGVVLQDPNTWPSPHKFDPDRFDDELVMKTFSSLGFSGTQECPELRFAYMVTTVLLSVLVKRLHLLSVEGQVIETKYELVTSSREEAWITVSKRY
UniProt P18887, whole entry: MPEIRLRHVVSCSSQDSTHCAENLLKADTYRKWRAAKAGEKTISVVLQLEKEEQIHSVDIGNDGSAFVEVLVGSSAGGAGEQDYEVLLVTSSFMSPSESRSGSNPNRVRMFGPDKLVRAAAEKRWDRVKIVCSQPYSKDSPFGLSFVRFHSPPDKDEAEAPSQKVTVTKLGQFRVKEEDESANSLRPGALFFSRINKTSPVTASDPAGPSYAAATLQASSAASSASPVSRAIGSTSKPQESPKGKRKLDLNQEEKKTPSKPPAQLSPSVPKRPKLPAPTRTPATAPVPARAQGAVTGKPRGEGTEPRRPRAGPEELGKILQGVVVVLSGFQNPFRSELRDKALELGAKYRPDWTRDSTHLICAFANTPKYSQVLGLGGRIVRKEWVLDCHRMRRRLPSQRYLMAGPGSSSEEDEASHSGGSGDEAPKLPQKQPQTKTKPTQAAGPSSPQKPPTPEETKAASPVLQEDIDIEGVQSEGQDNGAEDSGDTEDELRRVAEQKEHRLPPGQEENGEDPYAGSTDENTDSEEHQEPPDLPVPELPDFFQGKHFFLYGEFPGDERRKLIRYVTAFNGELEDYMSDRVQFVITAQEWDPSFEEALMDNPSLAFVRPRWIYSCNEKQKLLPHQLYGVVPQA
UniProt O95249: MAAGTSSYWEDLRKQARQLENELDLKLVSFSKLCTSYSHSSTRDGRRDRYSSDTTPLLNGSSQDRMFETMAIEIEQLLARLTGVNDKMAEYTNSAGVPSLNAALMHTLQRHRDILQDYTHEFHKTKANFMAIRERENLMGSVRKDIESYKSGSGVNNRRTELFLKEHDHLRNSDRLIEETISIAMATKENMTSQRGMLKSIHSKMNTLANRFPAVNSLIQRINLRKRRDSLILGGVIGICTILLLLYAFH
UniProt Q96C57: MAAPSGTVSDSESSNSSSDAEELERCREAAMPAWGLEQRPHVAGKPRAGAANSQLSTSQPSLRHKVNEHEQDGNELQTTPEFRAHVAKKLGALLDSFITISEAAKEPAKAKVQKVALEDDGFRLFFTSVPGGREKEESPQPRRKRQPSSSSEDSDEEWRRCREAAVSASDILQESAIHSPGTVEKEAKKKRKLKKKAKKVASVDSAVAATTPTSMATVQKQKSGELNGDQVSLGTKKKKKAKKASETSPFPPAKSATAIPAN
UniProt Q03426, whole entry: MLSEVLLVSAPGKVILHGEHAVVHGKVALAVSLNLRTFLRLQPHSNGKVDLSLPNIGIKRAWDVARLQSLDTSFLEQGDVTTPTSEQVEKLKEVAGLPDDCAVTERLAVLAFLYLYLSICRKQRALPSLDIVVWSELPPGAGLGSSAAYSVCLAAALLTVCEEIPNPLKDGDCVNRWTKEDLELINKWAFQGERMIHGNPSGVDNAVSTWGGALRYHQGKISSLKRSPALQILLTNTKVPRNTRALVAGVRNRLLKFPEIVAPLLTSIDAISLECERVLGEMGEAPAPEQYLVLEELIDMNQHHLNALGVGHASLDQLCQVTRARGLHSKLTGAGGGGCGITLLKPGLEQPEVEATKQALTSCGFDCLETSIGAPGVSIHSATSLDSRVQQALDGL
UniProt P29692: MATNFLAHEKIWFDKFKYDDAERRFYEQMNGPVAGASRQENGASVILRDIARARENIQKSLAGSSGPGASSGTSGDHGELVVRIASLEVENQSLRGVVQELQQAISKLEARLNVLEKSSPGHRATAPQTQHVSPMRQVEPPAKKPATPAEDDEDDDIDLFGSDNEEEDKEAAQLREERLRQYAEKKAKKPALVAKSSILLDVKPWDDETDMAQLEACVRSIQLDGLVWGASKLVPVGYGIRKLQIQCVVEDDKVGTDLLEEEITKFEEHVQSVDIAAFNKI
UniProt Q9NPF2: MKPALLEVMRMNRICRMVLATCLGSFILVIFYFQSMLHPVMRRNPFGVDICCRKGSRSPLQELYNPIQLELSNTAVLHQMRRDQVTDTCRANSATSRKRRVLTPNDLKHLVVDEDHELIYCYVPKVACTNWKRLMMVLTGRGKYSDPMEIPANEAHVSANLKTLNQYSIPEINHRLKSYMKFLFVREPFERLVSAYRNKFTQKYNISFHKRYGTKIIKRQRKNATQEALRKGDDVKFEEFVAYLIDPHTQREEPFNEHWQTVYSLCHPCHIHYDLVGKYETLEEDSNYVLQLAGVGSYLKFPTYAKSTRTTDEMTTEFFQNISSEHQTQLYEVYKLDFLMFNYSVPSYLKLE
UniProt P55786: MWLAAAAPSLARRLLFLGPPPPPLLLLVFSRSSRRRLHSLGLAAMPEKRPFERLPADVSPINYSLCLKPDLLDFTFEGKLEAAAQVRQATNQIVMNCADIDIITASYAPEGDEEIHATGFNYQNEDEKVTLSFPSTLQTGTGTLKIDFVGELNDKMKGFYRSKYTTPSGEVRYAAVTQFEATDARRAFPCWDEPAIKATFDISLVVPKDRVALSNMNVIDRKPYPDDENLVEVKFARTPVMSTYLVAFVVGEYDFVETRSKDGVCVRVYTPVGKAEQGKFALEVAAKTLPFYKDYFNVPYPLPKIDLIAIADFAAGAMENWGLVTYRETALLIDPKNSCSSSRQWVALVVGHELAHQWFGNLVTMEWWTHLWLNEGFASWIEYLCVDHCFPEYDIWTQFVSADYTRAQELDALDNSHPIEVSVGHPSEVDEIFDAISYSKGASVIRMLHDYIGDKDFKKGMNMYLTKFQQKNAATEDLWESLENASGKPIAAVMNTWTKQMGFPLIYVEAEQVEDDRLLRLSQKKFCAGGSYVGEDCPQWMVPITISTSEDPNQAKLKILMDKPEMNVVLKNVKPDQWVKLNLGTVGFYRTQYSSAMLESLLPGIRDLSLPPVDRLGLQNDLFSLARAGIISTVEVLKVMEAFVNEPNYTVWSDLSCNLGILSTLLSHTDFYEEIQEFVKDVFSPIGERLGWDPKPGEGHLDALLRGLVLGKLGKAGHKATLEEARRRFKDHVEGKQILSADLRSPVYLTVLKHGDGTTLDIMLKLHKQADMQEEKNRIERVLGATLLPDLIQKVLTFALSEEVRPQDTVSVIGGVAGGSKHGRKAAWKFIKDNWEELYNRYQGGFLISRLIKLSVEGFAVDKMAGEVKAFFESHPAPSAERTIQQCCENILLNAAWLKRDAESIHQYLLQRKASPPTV
UniProt P11802: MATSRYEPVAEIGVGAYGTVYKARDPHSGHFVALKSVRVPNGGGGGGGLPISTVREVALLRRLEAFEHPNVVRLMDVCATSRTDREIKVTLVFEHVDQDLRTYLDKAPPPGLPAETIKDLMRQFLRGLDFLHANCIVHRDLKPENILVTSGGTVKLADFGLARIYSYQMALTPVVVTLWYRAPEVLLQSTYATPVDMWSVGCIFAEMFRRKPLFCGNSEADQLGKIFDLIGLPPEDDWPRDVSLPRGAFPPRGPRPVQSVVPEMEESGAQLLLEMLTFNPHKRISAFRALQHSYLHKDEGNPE

Row | Target | NP40-soluble protein abundance (concentration: 0.1mM) | NP40-soluble protein abundance (concentration: 0.5mM)
1 | E9PDF6 and related entries (UniProt O43795) | 1.55 ± 0.26 | 1.97 ± 0.37
2 | E7EPT4 and related entries (UniProt P19404) | 1.01 ± 0.034 | 0.973 ± 0.038
3 | F8W9L6 and related entries (UniProt Q12912) | 0.995 ± 0.027 | 0.966 ± 0.016
4 | F5GZ90 and related entries (UniProt Q9NZJ0) | 0.989 ± 0.029 | 0.959 ± 0.035
5 | E9PHG5 and related entries (UniProt Q6UW02) | 0.983 ± 0.021 | 1 ± 0.065
6 | F5H8D7 and related entries (UniProt P18887) | 0.956 ± 0.029 | 0.992 ± 0.052
7 | E9PCW1 and related entries (UniProt O95249) | 0.969 ± 0.038 | 1.01 ± 0.041
8 | E9PJF5 and related entries (UniProt Q9HCU9) | 1.03 ± 0.018 | 1.03 ± 0.055
9 | F5H7W8 and related entries (UniProt Q96C57) | 1.06 ± 0.057 | 1.17 ± 0.028
10 | F5H8H2 and related entries (UniProt Q03426) | 1.01 ± 0.025 | 0.958 ± 0.08
11 | E9PRY8 and related entries (UniProt P29692) | 1.02 ± 0.034 | 0.993 ± 0.053
12 | F8VVA7 and related entries (UniProt P61923) | 1 ± 0.041 | 1.04 ± 0.1
13 | F8VXK3 and related entries (UniProt Q9NPF2) | 0.994 ± 0.015 | 0.969 ± 0.015
14 | E9PLK3 and related entries (UniProt P55786) | 1.03 ± 0.021 | 0.972 ± 0.09
15 | E7EPN6 and related entries (UniProt P55347) | 1.01 ± 0.031 | 1 ± 0.049
16 | F8VTV8 and related entries (UniProt P11802) | 0.99 ± 0.013 | 1.01 ± 0.016

From no. 8 up to 11, as listed above:
Row | Target | NP40-soluble protein abundance (concentration: 0.1mM) | NP40-soluble protein abundance (concentration: 0.5mM)
8 | E9PJF5 and related entries (UniProt Q9HCU9) | 1.03 ± 0.018 | 1.03 ± 0.055
9 | F5H7W8 and related entries (UniProt Q96C57) | 1.06 ± 0.057 | 1.17 ± 0.028
10 | F5H8H2 and related entries (UniProt Q03426) | 1.01 ± 0.025 | 0.958 ± 0.08
11 | E9PRY8 and related entries (UniProt P29692) | 1.02 ± 0.034 | 0.993 ± 0.053

From the supplement of paper PMC6411743
